By IC50 is commonly meant the concentration that inhibits the measured activity by half.

By UniProt entry, the sequences of proteins in these tests, tags left out.
UniProt Q8NER1, whole entry: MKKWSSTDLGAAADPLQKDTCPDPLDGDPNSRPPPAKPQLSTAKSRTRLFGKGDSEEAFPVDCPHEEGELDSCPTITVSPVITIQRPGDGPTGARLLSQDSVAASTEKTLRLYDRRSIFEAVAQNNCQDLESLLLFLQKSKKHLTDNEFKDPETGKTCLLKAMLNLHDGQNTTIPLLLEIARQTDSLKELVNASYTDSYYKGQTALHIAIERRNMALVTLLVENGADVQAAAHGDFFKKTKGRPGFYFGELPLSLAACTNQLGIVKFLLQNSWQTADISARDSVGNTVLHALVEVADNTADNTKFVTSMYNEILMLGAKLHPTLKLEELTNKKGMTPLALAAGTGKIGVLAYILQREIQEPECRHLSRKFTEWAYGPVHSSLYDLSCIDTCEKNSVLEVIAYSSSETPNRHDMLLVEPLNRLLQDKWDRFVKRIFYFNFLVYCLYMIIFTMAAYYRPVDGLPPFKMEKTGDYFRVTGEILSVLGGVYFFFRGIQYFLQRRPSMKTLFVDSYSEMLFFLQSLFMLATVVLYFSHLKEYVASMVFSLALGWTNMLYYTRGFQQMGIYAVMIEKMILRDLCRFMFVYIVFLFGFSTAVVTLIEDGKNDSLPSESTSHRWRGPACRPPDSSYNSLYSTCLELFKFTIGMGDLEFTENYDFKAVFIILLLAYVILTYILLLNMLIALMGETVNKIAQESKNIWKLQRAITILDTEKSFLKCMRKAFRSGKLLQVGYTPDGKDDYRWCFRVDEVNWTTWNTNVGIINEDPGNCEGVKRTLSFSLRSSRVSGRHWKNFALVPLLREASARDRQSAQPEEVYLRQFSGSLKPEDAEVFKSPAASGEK

The results in this text go back to patent publication US20070161637A1, “Substituted pyridin-2-ylamine analogues” (Neurogen Corporation, priority 2003, published 2007).

The target of this test is human capsaicin receptor (Homo sapiens, UniProt Q8NER1). The experiment in a line: Calcium mobilization assay, determination of antagonist activity (Example 6). Format: cell-based. As to conditions: concentration giving 50% decrease in the fluorescence response of cells expressing human capsaicin receptor exposed to capsaicin.

The match of structure and compound is tentative.

Consider `CC(C)(C)c1ccc(Nc2nc(Cl)nc(OCc3ccccc3Cl)n2)cc1`, for which the IC50 was less than 1000 nM.
